From publication doi:10.1101/2024.09.04.610270
No constants are given. Whether binding was seen depends on the method and setting. For part of these data: A result given as binding can be weak or reduced; the word gives no strength.

T1: arginine/serine-rich zinc knuckle-containing protein 33 (RS2Z33), native full-length, yeast two-hybrid bait (Arabidopsis thaliana) (UniProt Q8VYA5)
T1 sequence: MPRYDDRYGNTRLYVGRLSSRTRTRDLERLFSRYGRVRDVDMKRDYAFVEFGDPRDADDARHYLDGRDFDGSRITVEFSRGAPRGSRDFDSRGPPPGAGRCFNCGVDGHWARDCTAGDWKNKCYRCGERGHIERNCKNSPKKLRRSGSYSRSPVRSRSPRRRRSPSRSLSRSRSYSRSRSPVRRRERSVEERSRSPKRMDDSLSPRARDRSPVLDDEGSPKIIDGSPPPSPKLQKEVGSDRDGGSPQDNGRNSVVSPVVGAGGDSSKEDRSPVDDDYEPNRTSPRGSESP

T2: arginine/serine-rich zinc knuckle-containing protein 32 (RS2Z32), native full-length, yeast two-hybrid bait (Arabidopsis thaliana) (UniProt Q9FYB7)
T2 sequence: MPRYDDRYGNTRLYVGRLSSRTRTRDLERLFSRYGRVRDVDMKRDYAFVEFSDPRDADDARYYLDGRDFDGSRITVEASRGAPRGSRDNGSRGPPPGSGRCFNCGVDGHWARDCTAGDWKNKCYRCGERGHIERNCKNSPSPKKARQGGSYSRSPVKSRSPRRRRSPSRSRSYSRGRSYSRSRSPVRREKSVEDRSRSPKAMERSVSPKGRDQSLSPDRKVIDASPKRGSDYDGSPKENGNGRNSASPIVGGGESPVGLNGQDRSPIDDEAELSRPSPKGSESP


Experiments:
Test in all cases: two-hybrid
[1] = molecular target: T1, arginine/serine-rich zinc knuckle-containing protein 33 (RS2Z33), native full-length, yeast two-hybrid bait (Arabidopsis thaliana)
[2] = molecular target: T2, arginine/serine-rich zinc knuckle-containing protein 32 (RS2Z32), native full-length, yeast two-hybrid bait (Arabidopsis thaliana)
[3] = molecular target: RS2Z32mutRS (Arabidopsis thaliana) (UniProt Q9FYB7)
[4] = molecular target: RS2Z33mutRRM+ZnKs (Arabidopsis thaliana) (UniProt Q8VYA5)
[5] = molecular target: RS2Z32mutRRM+ZnKs (Arabidopsis thaliana) (UniProt Q9FYB7)
[6] = molecular target: RS2Z33mutRS (Arabidopsis thaliana) (UniProt Q8VYA5)
[7] = molecular target: RS2Z33mutZnKs (Arabidopsis thaliana) (UniProt Q8VYA5)
[8] = molecular target: RS2Z32mutZnKs (Arabidopsis thaliana) (UniProt Q9FYB7)
[9] = molecular target: RS2Z33mutRRM+RS (Arabidopsis thaliana) (UniProt Q8VYA5)
[10] = molecular target: RS2Z32mutSP (Arabidopsis thaliana) (UniProt Q9FYB7)
[11] = molecular target: RS2Z33mutSP (Arabidopsis thaliana) (UniProt Q8VYA5)

Molecule	binding [1]	binding [2]	binding [3]	binding [6]	other results
SRPK2 (Arabidopsis thaliana) (enzyme)	no binding	no binding			
PININ (Arabidopsis thaliana)	no binding	no binding			
SR45mutRS1+RS2, yeast two-hybrid (from UniProt Q9SEE9-1)	no binding	no binding			
ACINUS (Arabidopsis thaliana)	no binding	no binding			
SRPK3b (Arabidopsis thaliana) (enzyme)	binds	binds			
SRPK4 (Arabidopsis thaliana) (enzyme)	binds	binds			
SRPK1 (Arabidopsis thaliana) (enzyme)	no binding	no binding			
SRPK3a (Arabidopsis thaliana) (enzyme)	binds	binds			
SR45.1 (protein, UniProt Q9SEE9-1 1-414) MAKPSRGRRSPSVSGSSSRSSSRSRSGSSPSRSISRSRSRSRSLSSSSSPSRSVSSGSRSPPRRGKSPAGPARRGRSPPPPPSKGASSPSKKAVQESLVLHVDSLSRNVNEAHLKEIFGNFGEVIHVEIAMDRAVNLPRGHGYVEFKARADAEKAQLYMDGAQIDGKVVKATFTLPPRQKVSSPPKPVSAAPKRDAPKSDNAAADAEKDGGPRRPRETSPQRKTGLSPRRRSPLPRRGLSPRRRSPDSPHRRRPGSPIRRRGDTPPRRRPASPSRGRSPSSPPPRRYRSPPRGSPRRIRGSPVRRRSPLPLRRRSPPPRRLRSPPRRSPIRRRSRSPIRRPGRSRSSSISPRKGRGPAGRRGRSSSYSSSPSPRRIPRKISRSRSPKRPLRGKRSSSNSSSSSSPPPPPPPRKT			no binding	no binding	binding [4]: binds; binding [5]: binds
SCL30 (protein, UniProt Q8L3X8 1-262) MRRYSPPYYSPPRRGYGGRGRSPPPPPPRRGYGGGGGGGGRRGSSHGSLLVRNIPLDCRPEELREPFERFGPVRDVYIPRDYYSGQPRGFAFVEFVDAYDAGEAQRSMNRRSFAGREITVVVASESRKRPEEMRVKTRTRSREPSGSRDRSHGRSRSRSISRSRSPRRPSDSRSRYRSRSYSPAPRRRGGPPRGEEDENYSRRSYSPGYEGAAAAAPDRDRNGDNEIREKPGYEAEDRRRGGRAVSRSPSGSRSRSVEVSPR			no binding	no binding	binding [7]: binds; binding [8]: binds
SR34 (protein, UniProt O22315 1-303) MSSRSSRTVYVGNLPGDIREREVEDLFSKYGPVVQIDLKVPPRPPGYAFVEFDDARDAEDAIHGRDGYDFDGHRLRVELAHGGRRSSDDTRGSFNGGGRGGGRGRGDGGSRGPSRRSEFRVLVTGLPSSASWQDLKDHMRKGGDVCFSQVYRDARGTTGVVDYTCYEDMKYALKKLDDTEFRNAFSNGYVRVREYDSRKDSRSPSRGRSYSKSRSRSRGRSVSRSRSRSRSRSRSPKAKSSRRSPAKSTSRSPGPRSKSRSPSPRRSRSRSRSPLPSVQKEGSKSPSKPSPAKSPIHTRSPSR			no binding	binds	binding [9]: no binding
Cyp59 (protein, UniProt Q6Q151 1-506) MSVLIVTSLGDIVIDLHSDKCPLTCKNFLKLCKIKYYNGCLFHTVQKDFTAQTGDPTGTGAGGDSIYKFLYGEQARFYKDEIHLDLKHSKTGTVAMASGGENLNASQFYFTLRDDLDYLDGKHTVFGQIAEGFDTLTRINEAYVDPKNRPYKNIRIKHTHILDDPFDDPPQLAEMMPDASPEGKPKEEVKDDVRLEDDWVPMDEELGAQELEEVIREKAAHSSAVVLESIGDIPEAEVKPPDNVLFVCKLNPVTEDEDLHTIFSRFGTVVSADVIRDFKTGDSLCYAFIEFENKESCEQAYFKMDNALIDDRRIHVDFSQSVSKLWSQFRQKDSQKGKGNGCFKCGSTDHIAKDCVGGPSSKFIVKDQNRQHGGGEGYEMVFEGDVHETPKHNSHERERSEKIQRRSPHGNGEGKRQHRDERDDGRRQHDREDARELERKHRERKERESREDEDRRRRRRREESRDKESRRERDEDDHRSHRDYKERRRERDDRHGREARHERRDR			no binding	no binding	binding [7]: binds; binding [8]: binds; binding [10]: binds; binding [11]: binds
SR45.2 (protein, UniProt Q9SEE9-2 1-407) MAKPSRGRRSPSVSGSSSRSSSRSRSGSSPSRSISRSRSRSRSLSSSSSPSRSVSSGSRSPPRRGKSPAGPARRGRSPPPPPSKGASSPSKKAVQESLVLHVDSLSRNVNEAHLKEIFGNFGEVIHVEIAMDRAVNLPRGHGYVEFKARADAEKAQLYMDGAQIDGKVVKATFTLPPRQKVSSPPKPVSAAPKRDAPKSDNAAADAEKDGGPRRPRERLSPRRRSPLPRRGLSPRRRSPDSPHRRRPGSPIRRRGDTPPRRRPASPSRGRSPSSPPPRRYRSPPRGSPRRIRGSPVRRRSPLPLRRRSPPPRRLRSPPRRSPIRRRSRSPIRRPGRSRSSSISPRKGRGPAGRRGRSSSYSSSPSPRRIPRKISRSRSPKRPLRGKRSSSNSSSSSSPPPPPPPRKT			no binding	no binding	binding [4]: no binding; binding [5]: no binding
MOS14 (protein, UniProt Q8GUL2 1-958) MEHQNAVKEALNALYHHPDDTVRVHADRWLQNFQGTLDAWQVADNLLHDSSSNLETLIFCSQTLRSKVQRDFEELPPGAFQKLRQSLTTLLKKFHKGPPKVRTQISIAVAALAVHVPAADWGDGGIISWLRDEMHMHPEYVPGFLELLTVLPEETFNYKIAARPDRRRQFEKELTSQMEAALSILSACLKISELKEQVLEAFASWLRLRHGIPGTVLACHPLVHAALSSLNCDPLSEASVNVISELIHHTASPSSGGISAQTPLIQVIVPQILSLQAHLRDSSKDEEDVKAIGRLFADVGDSYVELIATGSDEPMVIVHALLEVTAHPEFDIASMTFNFWHSLQLMLTKRESYSSLGSEASIEVERNRRLHIFQPAYQSLVSLVGFRVQYPEDYQGLSYEDLKEFKQTRYAVADVLIDAALILGGDTTLKILYMKLLEANAQTGNNFQDWRPAEAILFCIWAISNYVSVVEAEVMPQVMALLQNLPQQAQLLQTACLLVGAYSKWLNAAPASVSILPSIIRILMSGMGTSEDCAAAAALAFRHTCDDCRKNLCGYFEDLFNIYCMAINGGGGYKVSAEDSLNLVEALGMVVTELPLDQAKGALEKLCFSAASPLEEAAKEDLEKKHARELTVHIDRFAFLFRYVNHPEAVAAEINKHWAIFRVIFDARPWDMRTMESLCRACKYAVRTSGRYIIDTIGEMLEKIQFHYQQHHQPCFLYLSSEVIKIFGSDPSCAVYLKNLIETLFAHTTCLMTSIKEVTARPDIADDCFLLASRCLRYCPHLFIPSPIFPALVNCAMIGITVQHREACHSILTFLTDIFDLEKSVNEEQFVRIRDNIIIPRGATITRILIASLAGALPSSRLDTVTYSLLALTRTYRLQAVSWAKESVSLIPRTALTETESTKFLQALSDIAYGADVNSLIGQVEELSDVCRRNRTVQELVQAALKPLELNLVTAPVS			no binding	no binding	
